Laboratory results taken from PubChem BioAssay AID248 (DTP/NCI, 2004).
The list shows only some results of the screen, not a fair sample: it is rich in T/C values a quarter to a half above the control, in often repeated tests (any T/C) and in doses without a T/C. Other doses and runs of a compound stand elsewhere. T/C: endpoint of the treated group in % of that of the vehicle group. Some entries give survivors of the animals treated and no T/C: the source holds a T/C of zero for them, seemingly a mark for toxic or unscored doses. Some doses without a T/C left all or most animals alive at the check, yet need not have been tolerated: survival well below the control is almost never listed, so the zero probably covers shortened survival too. Counts of survivors are from the toxicity check (mostly the fifth day) where no day follows; animals may have died later. Schedules are NCI's codes, read here as Q, the interval in days (D) or hours (H), X, the number of doses. Some schedule codes hold Z or #, which are not explained here. Where survival is the endpoint, this PubChem deposit counts one and a half times the control or more as active, and values a quarter to a half above the control carry no call in these data; other NCI protocols may use other cut-offs. Some doses were run more than once; the values are given in rising order. Counts like (3×) count equal records among those shown. Some T/C values carry the count of animals alive at the toxicity check (mostly the fifth day); without a count, all were alive then.

Tested on: L1210 leukemia ip in BDF1 mice, survival T/C
Test: NCI In Vivo Anticancer Drug Screen. Data for tumor model L1210 Leukemia (intraperitoneal) in B6D2F1 (BDF1) mice
Conditions: higher T/C = longer survival

CC[C@]1(O)C[C@H]2CN(CCc3c([nH]c4ccccc34)[C@@](C(=O)OC)(c3cc4c(cc3OC)N(C=O)[C@H]3[C@@](O)(C(=O)OC)[C@H](OC(C)=O)[C@]5(CC)C=CCN6CC[C@]43[C@@H]65)C2)C1
T/C (T/C endpoint: mean survival time, dose: 62.5 micrograms/kg/injection, schedule: Q03HX024 (ip), vehicle: clinical formulation): 131 % of control | T/C (T/C endpoint: mean survival time, dose: 95.0 micrograms/kg/injection, schedule: Q01DX009 (ip), vehicle: saline): 109, 117, 126, 132 % of control | T/C (T/C endpoint: mean survival time, dose: 125.0 micrograms/kg/injection, schedule: Q03HX024 (ip), vehicle: clinical formulation): 133 % of control | T/C (T/C endpoint: mean survival time, dose: 190.0 micrograms/kg/injection, schedule: Q01DX009 (ip), vehicle: saline): 129 (2×), 130, 132 % of control | T/C (T/C endpoint: mean survival time, dose: 250.0 micrograms/kg/injection, schedule: Q01DX009 (ip), vehicle: clinical formulation): 145 % of control | T/C (T/C endpoint: mean survival time, dose: 250.0 micrograms/kg/injection, schedule: Q03HX008 (ip), vehicle: clinical formulation): 127 % of control | T/C (T/C endpoint: mean survival time, dose: 250.0 micrograms/kg/injection, schedule: Q03HX016 (ip), vehicle: clinical formulation): 141 % of control | T/C (T/C endpoint: mean survival time, dose: 360.0 micrograms/kg/injection, schedule: Q04DX003 (ip), vehicle: saline): 126 % of control | T/C (T/C endpoint: mean survival time, dose: 370.0 micrograms/kg/injection, schedule: Q01DX009 (ip), vehicle: saline): 102, 133, 135, 164 % of control | T/C (T/C endpoint: mean survival time, dose: 500.0 micrograms/kg/injection, schedule: Q01DX009 (ip), vehicle: clinical formulation): 131 % of control | T/C (T/C endpoint: mean survival time, dose: 500.0 micrograms/kg/injection, schedule: Q03HX008 (ip), vehicle: clinical formulation): 132 % of control [9 of 10 alive] | T/C (T/C endpoint: mean survival time, dose: 500.0 micrograms/kg/injection, schedule: Q03HX016 (ip), vehicle: clinical formulation): 131 % of control [9 of 10 alive] | T/C (T/C endpoint: mean survival time, dose: 1000.0 micrograms/kg/injection, schedule: Q04DX003 (ip), vehicle: clinical formulation): 131 % of control | T/C (T/C endpoint: mean survival time, dose: 2000.0 micrograms/kg/injection, schedule: Q04DX003 (ip), vehicle: clinical formulation): 147 % of control | T/C (T/C endpoint: mean survival time, dose: 4000.0 micrograms/kg/injection, schedule: Q08DX002 (ip), vehicle: clinical formulation): 134 % of control | T/C (T/C endpoint: median survival time, dose: 0.05 mg/kg/injection, schedule: Q01DX009 (ip), vehicle: water): 131 % of control | T/C (T/C endpoint: median survival time, dose: 0.1 mg/kg/injection, schedule: Q01DX001 (ip), vehicle: water, evaluated on day 5): 107 and 108 % of control | T/C (T/C endpoint: median survival time, dose: 0.1 mg/kg/injection, schedule: Q01DX001 (ip), vehicle: water, evaluated on day 30): 107 % of control | T/C (T/C endpoint: median survival time, dose: 0.1 mg/kg/injection, schedule: Q01DX001 (ip), vehicle: water, evaluated on day 31): 108 % of control | T/C (T/C endpoint: median survival time, dose: 0.1 mg/kg/injection, schedule: Q01DX009 (ip), vehicle: water): 131 % of control | T/C (T/C endpoint: median survival time, dose: 0.12 mg/kg/injection, schedule: Q01DX009 (ip), vehicle: water): 125 % of control | T/C (T/C endpoint: median survival time, dose: 0.2 mg/kg/injection, schedule: Q01DX001 (ip), vehicle: water, evaluated on day 5): 114 and 117 % of control | T/C (T/C endpoint: median survival time, dose: 0.2 mg/kg/injection, schedule: Q01DX001 (ip), vehicle: water, evaluated on day 30): 117 % of control | T/C (T/C endpoint: median survival time, dose: 0.2 mg/kg/injection, schedule: Q01DX001 (ip), vehicle: water, evaluated on day 31): 114 % of control | T/C (T/C endpoint: median survival time, dose: 0.2 mg/kg/injection, schedule: Q01DX009 (ip), vehicle: water, evaluated on day 5): 133 % of control | T/C (T/C endpoint: median survival time, dose: 0.2 mg/kg/injection, schedule: Q01DX009 (ip), vehicle: water, evaluated on day 30): 127 % of control | T/C (T/C endpoint: median survival time, dose: 0.4 mg/kg/injection, schedule: Q01DX001 (ip), vehicle: water, evaluated on day 5): 117 and 119 % of control | T/C (T/C endpoint: median survival time, dose: 0.4 mg/kg/injection, schedule: Q01DX001 (ip), vehicle: water, evaluated on day 30): 119 % of control | T/C (T/C endpoint: median survival time, dose: 0.4 mg/kg/injection, schedule: Q01DX001 (ip), vehicle: water, evaluated on day 31): 117 % of control | T/C (T/C endpoint: median survival time, dose: 0.5 mg/kg/injection, schedule: Q01DX001 (ip), vehicle: saline): 125 % of control | T/C (T/C endpoint: median survival time, dose: 0.5 mg/kg/injection, schedule: Q01DX002 (ip), vehicle: water, evaluated on day 5): 126 % of control | T/C (T/C endpoint: median survival time, dose: 0.5 mg/kg/injection, schedule: Q01DX002 (ip), vehicle: water, evaluated on day 20): 126 % of control | survivor count (T/C endpoint: median survival time, dose: 0.5 mg/kg/injection, schedule: Q01DX009 (ip), vehicle: water): 6 of 8 | T/C (T/C endpoint: median survival time, dose: 0.5 mg/kg/injection, schedule: Q## X001 (ip), vehicle: saline): 125 % of control | survivor count (T/C endpoint: median survival time, dose: 0.8 mg/kg/injection, schedule: Q01DX009 (ip), vehicle: water): 5 of 8 | T/C (T/C endpoint: median survival time, dose: 1.0 mg/kg/injection, schedule: Q01DX001 (ip), vehicle: saline): 128 and 131 % of control | T/C (T/C endpoint: median survival time, dose: 1.0 mg/kg/injection, schedule: Q01DX002 (ip), vehicle: water, evaluated on day 5): 133 % of control | T/C (T/C endpoint: median survival time, dose: 1.0 mg/kg/injection, schedule: Q01DX002 (ip), vehicle: water, evaluated on day 20): 133 % of control | survivor count (T/C endpoint: median survival time, dose: 1.0 mg/kg/injection, schedule: Q01DX009 (ip), vehicle: water): 3 of 8 | T/C (T/C endpoint: median survival time, dose: 1.0 mg/kg/injection, schedule: Q## X001 (ip), vehicle: saline): 128 % of control | T/C (T/C endpoint: median survival time, dose: 1.6 mg/kg/injection, schedule: Q01DX001 (ip), vehicle: water, evaluated on day 5): 130 % of control | T/C (T/C endpoint: median survival time, dose: 1.6 mg/kg/injection, schedule: Q01DX001 (ip), vehicle: water, evaluated on day 30): 130 % of control | survivor count (T/C endpoint: median survival time, dose: 2.0 mg/kg/injection, schedule: Q01DX009 (ip), vehicle: water): 1 of 8 | T/C (T/C endpoint: median survival time, dose: 4.0 mg/kg/injection, schedule: Q01DX001 (ip), vehicle: saline): 141 % of control | T/C (T/C endpoint: median survival time, dose: 4.0 mg/kg/injection, schedule: Q01DX001 (ip), vehicle: water, evaluated on day 5): 129 % of control | T/C (T/C endpoint: median survival time, dose: 4.0 mg/kg/injection, schedule: Q01DX001 (ip), vehicle: water, evaluated on day 20): 129 % of control | survivor count (T/C endpoint: median survival time, dose: 4.0 mg/kg/injection, schedule: Q01DX002 (ip), vehicle: water): 3 of 8 | T/C (T/C endpoint: median survival time, dose: 4.0 mg/kg/injection, schedule: Q## X001 (ip), vehicle: saline): 141 % of control | survivor count (T/C endpoint: median survival time, dose: 8.0 mg/kg/injection, schedule: Q01DX001 (ip), vehicle: water): 7 of 8 | survivor count (T/C endpoint: median survival time, dose: 8.0 mg/kg/injection, schedule: Q## X001 (ip), vehicle: saline): 9 of 10
